For this assay, the target named is hCCR7-smBiT (human CC chemokine receptor type 7 fused to smBiT) (human) (UniProt P32248). Nature of the assay: split reporter; HEK293T cells co-transfected with hCCR7-smBiT and LgBiT-β-arrestin2 (R393E, R395E); HBSS with 20 mM HEPES; 30 min preincubation with small-molecule antagonists or vehicle; luminescence after stimulation with CCL19 (18 nM, EC25).

Chains of the proteins cited; added tags and fusions are not shown. Lines headed by an entry give the natural chain unless they say otherwise; changes in a name come on top. Residues count along the entry.
UniProt P32248, residues 25-378: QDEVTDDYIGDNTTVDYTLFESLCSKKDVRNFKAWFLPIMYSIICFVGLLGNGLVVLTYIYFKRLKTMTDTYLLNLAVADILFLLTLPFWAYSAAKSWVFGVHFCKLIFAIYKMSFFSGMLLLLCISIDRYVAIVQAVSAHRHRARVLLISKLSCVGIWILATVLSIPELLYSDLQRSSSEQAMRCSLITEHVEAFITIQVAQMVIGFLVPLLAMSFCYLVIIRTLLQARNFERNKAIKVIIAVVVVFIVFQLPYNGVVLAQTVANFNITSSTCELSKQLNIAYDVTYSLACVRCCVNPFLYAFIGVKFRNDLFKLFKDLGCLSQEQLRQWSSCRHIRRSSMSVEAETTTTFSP
UniProt P32121: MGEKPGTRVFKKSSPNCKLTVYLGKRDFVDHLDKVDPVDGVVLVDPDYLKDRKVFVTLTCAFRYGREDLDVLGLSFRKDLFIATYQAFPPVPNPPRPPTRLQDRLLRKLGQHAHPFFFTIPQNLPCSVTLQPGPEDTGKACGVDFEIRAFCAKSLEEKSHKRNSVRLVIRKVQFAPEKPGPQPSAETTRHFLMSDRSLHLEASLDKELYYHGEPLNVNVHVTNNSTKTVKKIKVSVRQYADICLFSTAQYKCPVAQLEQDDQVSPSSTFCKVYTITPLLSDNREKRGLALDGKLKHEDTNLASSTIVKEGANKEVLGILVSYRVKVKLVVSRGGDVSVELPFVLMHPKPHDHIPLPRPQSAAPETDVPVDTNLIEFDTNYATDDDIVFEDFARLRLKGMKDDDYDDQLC

Results are given in words; binding and its absence hold for the method and conditions named. Binding seen in cells or lysates may run through a third protein. Some results given as binding are weak or reduced against the parent protein; the word gives no strength.

Take “LgBiT-β-arrestin2 mutant (R393E, R395E) (from UniProt P32121 1-409)”: the binding entry is reported as “binds”.

The values are drawn from paper PMC11873976.
